Assay results from the supplement of paper PMC12889115.
The list shows a part of the results. Values are raw readings; no control value is given beside them.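 In the initial screen, polymyxin B was used at a concentration that permeabilizes Salmonella's outer membrane but not its inner membrane. Maximum growth was set by DMSO wells with or without polymyxin B. Since plates varied, data were ranked per plate, and compounds giving the lowest OD600 advanced as hits.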

Tested on: Salmonella enterica serovar Typhimurium SL1344
Test: bacterial growth OD600 after 18 h with compound and polymyxin B; higher = more bacterial growth (less inhibition)
Details: 50 µM, Mueller-Hinton broth

SMILES | bacterial growth OD600 (polymyxin B 1 µg/mL) | bacterial growth OD600 (polymyxin B 0.75 µg/mL)
c1nc(CN(CCN2CCCCC2)CC2CCCN(C3CCCC3)C2)c[nH]1 (stereo not given) | 0.967 | 
COc1ccccc1NC(=O)Nc1ccnn1C1CCN(C(=O)NC(C)C)CC1 | 1.01 | 
Cc1nc(N2CCC(C(=O)NCC3(O)CCCCC3)CC2)nc2cc(S(C)(=O)=O)ccc12 |  | 0.849
C=C(C)CNC(=O)CC(c1ccccc1)c1ccc2c(c1)OCO2 (stereo not given) | 0.17 | 
CCCc1cc(CNC(=O)c2ccc(N3CCCC(CO)C3)nc2)on1 (stereo not given) |  | 0.785
CSCCNC(=O)C1CC(Cc2ccc(F)cc2)=NO1 (stereo not given) |  | 0.812
CC(C)c1cc(C(=O)N2CCc3onc(-c4ccccc4F)c3C2)on1 |  | 0.616
C=CCOc1cccc(C(=O)N2CCc3c(cnc(C)c3CNC(=O)/C=C/c3cccs3)C2)c1 |  | 0.681
COCC1CCN(C(=O)CC2(c3ccccc3Cl)CC(=O)N(C3CCCC3)C2=O)CC1 (stereo not given) |  | 0.53
O=C(CCC1CCN(C(=O)C2=CCCCC2)CC1)N1CCN(c2ccccc2)CC1 | 0.89 | 
CCOC(=O)C1(Cc2cccc(OC)c2)CCN(Cc2cccn2-c2ccccn2)CC1 | 0.78 | 
Cc1ccc2c(c1)CN(CC(=O)NCc1cn3c(C)cccc3n1)CC(c1ccsc1)O2 (stereo not given) |  | -0.003
COCCn1cnc2cc(NC(=O)C3CCCCC3)cc(C(=O)N3CCCC(c4ccccc4)C3)c21 (stereo not given) |  | 0.796
COC(=O)c1cccc(C(=O)N2CCc3c(cnc(C)c3CNC(=O)c3ccccc3SC)C2)c1 |  | 0.781
Cc1nc(N2CCC(C(=O)NCc3ccccc3Cl)CC2)nc2cc(S(C)(=O)=O)ccc12 |  | 0.783
COc1ccc(F)c(CC2(CCC(=O)N(C)CCC3CCCCO3)CCC(=O)N2)c1 (stereo not given) |  | 0.845
O=C(CCN1CCCCO1)N1CCCC(CCc2ccccc2F)C1 (stereo not given) |  | 0.836
C=CCS(=O)(=O)N1CCCC(Cc2cccc(OC)c2)(C(=O)OCC)C1 (stereo not given) | 0.907 | 
Cc1noc(C)c1CCC(=O)NC1CC(=O)N(CC2CCCCC2)C1 (stereo not given) | 1.09 | 
COc1ccc(OC2CCN(C(C)=O)CC2)c(C(=O)NCCc2nc(C)c(C)s2)c1 | 0.932 | 
CCC(COC)Nc1ccc(-c2nc(Cc3ccccc3)no2)cn1 (stereo not given) |  | 0.016
COC(=O)c1c(S(=O)(=O)NCc2ccccc2)sc2c1CCN(C(=O)CCc1ccccc1)C2 |  | 0.763
CN(CC1CCCN(CCc2ccc(F)cc2)C1)C(=O)c1cc2ccccc2cn1 (stereo not given) | 0.843 | 
Cc1c(C(C)NCc2ccc(Cl)c(F)c2)cnn1-c1ccccc1 (stereo not given) |  | 0.818
CO[C@H]1[C@H](NC(=O)c2ccncc2)c2ccccc2C12CCN(C(=O)CCC(C)C)CC2 |  | 0.863
CN(CCc1cnn(C)c1)C(=O)CC1(c2cccc(F)c2)CC(=O)N(Cc2cccnc2)C1=O (stereo not given) |  | 0.848
Cn1nnnc1SCCNC(=O)c1ccc2oc(Cc3ccccc3)nc2c1 |  | 0.802
O=C(c1ccccc1OC1CCN(Cc2ccc(OCCO)cc2)CC1)N1CCCCC1 |  | 0.82
O=C(CCCc1ccccc1)NC1CCCN(CCc2ccccc2)C1 (stereo not given) | 0.572 | 
Cc1ccc2oc(C(=O)N3CCCC(C(=O)c4cccs4)C3)c(C)c2c1 (stereo not given) | 0.035 | 

Another view of 8 compounds above.
SMILES	bacterial growth OD600 (polymyxin B 1 µg/mL)	bacterial growth OD600 (polymyxin B 0.75 µg/mL)
C=C(C)CNC(=O)CC(c1ccccc1)c1ccc2c(c1)OCO2 (stereo not given)	0.17	
CSCCNC(=O)C1CC(Cc2ccc(F)cc2)=NO1 (stereo not given)		0.812
COCC1CCN(C(=O)CC2(c3ccccc3Cl)CC(=O)N(C3CCCC3)C2=O)CC1 (stereo not given)		0.53
Cc1ccc2c(c1)CN(CC(=O)NCc1cn3c(C)cccc3n1)CC(c1ccsc1)O2 (stereo not given)		-0.003
Cc1noc(C)c1CCC(=O)NC1CC(=O)N(CC2CCCCC2)C1 (stereo not given)	1.09	
CCC(COC)Nc1ccc(-c2nc(Cc3ccccc3)no2)cn1 (stereo not given)		0.016
COC(=O)c1c(S(=O)(=O)NCc2ccccc2)sc2c1CCN(C(=O)CCc1ccccc1)C2		0.763
CN(CC1CCCN(CCc2ccc(F)cc2)C1)C(=O)c1cc2ccccc2cn1 (stereo not given)	0.843	
